PMC10518100
No constants are given. Whether binding was seen depends on the method and setting. Binding seen in cells or lysates may run through a third protein. Some binding calls cover weakened binding; strength is not graded here.

Chains of the proteins cited; added tags and fusions are not shown.
UniProt P08047: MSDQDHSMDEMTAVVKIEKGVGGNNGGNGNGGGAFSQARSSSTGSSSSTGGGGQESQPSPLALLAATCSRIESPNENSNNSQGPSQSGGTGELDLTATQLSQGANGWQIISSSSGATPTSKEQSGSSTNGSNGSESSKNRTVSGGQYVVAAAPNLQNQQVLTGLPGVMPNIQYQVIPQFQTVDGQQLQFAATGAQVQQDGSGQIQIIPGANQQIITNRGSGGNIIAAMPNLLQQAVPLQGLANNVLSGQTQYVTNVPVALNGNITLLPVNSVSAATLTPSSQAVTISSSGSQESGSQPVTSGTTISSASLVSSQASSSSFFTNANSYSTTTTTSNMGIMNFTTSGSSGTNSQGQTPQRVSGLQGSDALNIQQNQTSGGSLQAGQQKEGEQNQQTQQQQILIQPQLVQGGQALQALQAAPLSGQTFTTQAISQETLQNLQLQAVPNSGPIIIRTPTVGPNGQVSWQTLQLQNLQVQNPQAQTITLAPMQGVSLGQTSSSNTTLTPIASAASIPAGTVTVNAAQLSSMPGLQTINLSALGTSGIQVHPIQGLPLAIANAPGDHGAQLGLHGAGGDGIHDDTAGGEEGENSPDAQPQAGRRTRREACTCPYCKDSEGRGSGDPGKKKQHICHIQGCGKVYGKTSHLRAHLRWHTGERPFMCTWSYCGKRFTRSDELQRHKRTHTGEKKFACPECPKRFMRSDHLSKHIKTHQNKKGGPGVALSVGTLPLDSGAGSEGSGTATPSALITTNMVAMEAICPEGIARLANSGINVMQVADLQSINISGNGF
UniProt Q14258: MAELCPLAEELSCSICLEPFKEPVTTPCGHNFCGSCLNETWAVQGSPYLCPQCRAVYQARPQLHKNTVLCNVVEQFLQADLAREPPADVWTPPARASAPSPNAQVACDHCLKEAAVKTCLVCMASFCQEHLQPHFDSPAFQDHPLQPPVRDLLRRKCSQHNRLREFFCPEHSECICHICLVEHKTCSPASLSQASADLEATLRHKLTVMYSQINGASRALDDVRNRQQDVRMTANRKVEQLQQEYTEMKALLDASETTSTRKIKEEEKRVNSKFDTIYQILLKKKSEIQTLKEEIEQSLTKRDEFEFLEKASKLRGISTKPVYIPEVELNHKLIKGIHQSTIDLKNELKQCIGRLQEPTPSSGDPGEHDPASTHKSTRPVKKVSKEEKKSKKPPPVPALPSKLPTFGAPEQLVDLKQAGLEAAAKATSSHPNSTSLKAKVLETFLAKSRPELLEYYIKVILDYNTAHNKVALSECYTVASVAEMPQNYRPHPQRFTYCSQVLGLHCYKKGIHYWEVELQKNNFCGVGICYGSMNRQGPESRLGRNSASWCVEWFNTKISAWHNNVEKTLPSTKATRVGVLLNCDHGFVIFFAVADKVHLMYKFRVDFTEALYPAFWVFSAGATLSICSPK

Biological target: Sp1 transcription factor (Sp1) (human) (UniProt P08047)
Assay: co-IP; co-IP of Sp1 and TRIM25 in CRC cells with or without LINC00955 overexpression; bait and antibody not stated

Substance: tripartite motif containing 25 (TRIM25) (from UniProt Q14258 1-630) (enzyme)
- binding: binds
